This note sets out measurements from PubChem BioAssay AID1347423 (Functional Genomics Laboratory (NCATS/FGL), 2020).

Hit rate of the full screen: of about 52,000 sequences, about 210 (0.4%) were called active.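 Rule for the calls: active = gene whose silencing raises cell survival under the drug, median off-target-corrected z-score across its silencing RNAs 2 or more; inactive = the rest.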 This is one part of the list.

The nature of the assay: Resistance to Poly (ADP-Ribose) Polymerase inhibitor: Gene Identification via Genome-wide siRNA Screen. The conditions noted are these: mouse BRCA2 R2336H ES cells, olaparib, CellTiter-Glo viability; hits give high values. In short, it runs like this:
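Mouse BRCA2 R2336H ES cells were reverse-transfected with siRNA (20 nM final), treated at 48 h with 500 nM olaparib, and read by CellTiter-Glo after 72 h. Scores: MAD-based z per siRNA, median per gene, seed off-target correction.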
Background: Cellular ATP, detected with luciferase, serves as a proxy for viable cell number.
Regarding GGGACAGUACAGAGUGCUGTT against Hmx1, the z-score was inactive: -1.4.

Regarding GGAAAAUGUAAACAAGUACTT against Xpo5, the z-score is inactive: -1.78. Regarding GGAAGAAAGAGAGGUGUGATT against Nxf2, the z-score is inactive: -1.73. In the case of “GCCUGUUCUAGUGGUUCUUTT against 2300006N05Rik” it was inactive: -2.07. Under GGACUCUGACAAUUUUAUCTT against Pet2 stands inactive: 0.165. In the case of GCAAAACCCAACAACUCUGTT against Lig3 it was inactive: -2.41; in that of GCAAAAUGGUUCCUUUGGATT against Sec24c, inactive: -1.26; in that of GCUAUCGGCGUGAUUCAGATT against Fut7, inactive: 1.26. Consider GGUAAUGAGCAGAUGAAGCTT against Sgta, for which the z-score is inactive: -1.54.

GGUUAUCACAGGUAAAUGATT against Sim1: the z-score was inactive: -0.727. Under CGUUAGCAUCAGGUCAAGUTT against Zfp251 stands inactive: 0.834; under “GGCUGUGUUGUCGAUUUCCTT against E130310K16Rik”, inactive: -0.421. Consider GGAAGUCUGCCUGUUCUUGTT against Galnt10, for which the z-score is inactive: -0.0664. “GCUCUAUGGAUCCUUGGAGTT against A630056B21Rik”: the z-score was inactive: -2.44. Consider CGUUUGACCAAAACAGAAUTT against Fbxw10, for which the z-score was inactive: 0.184. As to GCAGGUUAGAGUCACUUGUTT against LOC330863, the z-score was inactive: 0.185. Under GCGGUUUGUCUUCAACAAGTT against Il1b stands inactive: 1.21; under CCUUAUGGGUAGAAAACCUTT against Mtmr2, inactive: 2.16.

Regarding CCGUCCUUCUGAGAAAUAATT against Tfip11, the z-score was inactive: -0.87. Under CCUCUAGAUAGUGUUAGAGTT against Smarcd1 stands inactive: -0.383. Under CCUACCUUCGAAUCUCAGUTT against Dusp15 stands inactive: 0.155; under GGUUGGAUUGGGAUUUGAATT against Vdac3, inactive: -1.35; under “GCUCAGCUAUCAAAACUUUTT against 9130017C17Rik”, inactive: 1.74.

Take “GGAAGGCCCUAGAAAGGACTT against A130033B22”: the z-score is inactive: -0.00211. Under CCUUUAUACCCAAUACCUATT against Sca2 stands inactive: 0.904; under GCCUAUACAUCGGACAAUCTT against Apcs, inactive: 0.426.

Regarding GGCAACUUUGAAGUCUUGATT against Dntt, the z-score is inactive: -0.582. In the case of GCCUCCUGAAUGAUGACAUTT against Klk24 it was inactive: -0.244; in that of GGAAUGUUCUGUCGCUAUGTT against Nrp1, inactive: 0.0552.
